Source: publication PMC10626543
These are yes or no findings as the source states them, for the method shown. In cells and extracts the contact can be indirect. Here binding means that the protein was enriched with, or labelled near, the bait; the list need not be complete.

Sequences of proteins named here, by UniProt entry; tags and fusion partners are left off. Residues count along the entry.
UniProt P48678, residues 1-647: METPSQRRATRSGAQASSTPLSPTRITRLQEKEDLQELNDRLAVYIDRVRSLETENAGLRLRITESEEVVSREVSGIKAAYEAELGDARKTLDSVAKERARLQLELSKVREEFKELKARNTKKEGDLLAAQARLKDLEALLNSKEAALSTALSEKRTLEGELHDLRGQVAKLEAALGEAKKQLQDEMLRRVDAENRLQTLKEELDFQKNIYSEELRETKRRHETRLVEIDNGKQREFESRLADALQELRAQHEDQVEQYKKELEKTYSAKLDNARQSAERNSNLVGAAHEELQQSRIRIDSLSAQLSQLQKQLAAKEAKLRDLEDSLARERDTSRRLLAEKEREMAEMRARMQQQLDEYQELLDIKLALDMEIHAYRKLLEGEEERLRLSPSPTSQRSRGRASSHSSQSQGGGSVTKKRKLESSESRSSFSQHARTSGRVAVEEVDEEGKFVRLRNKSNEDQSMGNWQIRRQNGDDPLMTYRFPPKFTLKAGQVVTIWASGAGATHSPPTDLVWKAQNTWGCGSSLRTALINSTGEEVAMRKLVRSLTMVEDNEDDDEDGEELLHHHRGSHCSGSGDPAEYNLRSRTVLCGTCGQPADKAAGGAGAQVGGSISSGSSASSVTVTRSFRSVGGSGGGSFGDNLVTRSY

B1: MICOS complex subunit Mic19 (protein, UniProt Q9CRB9 1-227)
chain: MGGTASTRRVTFEADENENITVVKGIRLSENVIDRMKESSPSGSKSQRYSSVYGASVSDEDLKRRVAEELALEQAKKESEHQRRLKQARDLERERAAANEQLTRAVLRERISSEEERMKAKHLARQLEEKDRVMRKQDAFYKEQLARLEERSSEFYKVTTEEYQKAAEEVEAKFKRYEYHPVCADLQTKILQCYRQNTQQTLSCSALASQYMHCVNHAKQSMLEKGG
B2: Sorbin and SH3 domain-containing protein 2 (protein, UniProt Q3UTJ2 1-1180)
chain: MNTDSGGCARKRAAMSVTLTSVKRVQSSPNLLAAGRESQSPDSAWRSYNDRNPETLNGDATYSSLAAKGFRSVRPNLQDKRSPTQSQITINGNSGGAVSPVSYYQRPFSPSAYSLPASLNSSIIMQHGRSLDSAETYSQHAQSLDGTMGSSIPLYRSSEEEKRVTVIKAPHYPGIGPVDESGIPTAIRTTVDRPKDWYKTMFKQIHMVHKPGLYNSPYSAQSHPAAKTQTYRPLSKSHSDNGTDAFKEVPSPVPPPHVPPRPRDQSSTLKHDWDPPDRKVDTRKFRSEPRSIFEYEPGKSSILQHERPVSIYQSSIDRSLERPSSSASMAGDFRKRRKSEPAVGPLRGLGDQSSSRTSPGRADLPGSSSTFTKSFISSSPSSPSRAQGGDDSKMCPPLCSYSGLNGTPSGELECCNAYRQHLDVPGDSQRAITFKNGWQMARQNAEIWSSTEETVSPKIKSRSCDDLLNDDCDSFPDPKTKSESMGSLLCEEDSKESCPMTWASPYIQEVCGNSRSRLKHRSAHNAPGFLKMYKKMHRINRKDLMNSEVICSVKSRILQYEKEQQHRGLLHGWSQSSTEEVPRDVVPTRISEFEKLIQKSKSMPNLGDEMLSPITLEPPQNGLCPKRRFSIESLLEEETQVRHPSQGQRSCKSNTLVPIHIEVTSDEQPRTHMEFSDSDQDGVVSDHSDYVHVEGSSFCSESDFDHFSFTSSESFYGSSHHHHHHHHHHRHLISSCKGRCPASYTRFTTMLKHERAKHENMDRPRRQEMDPGLSKLAFLVSPVPFRRKKILTPQKQTEKAKCKASVVEALDSALKDICDQIKAEKRRGSLPDNSILHRLISELLPQIPERNSSLHALKRSPMHQPFHPLPPDGASHCPLYQNDCGRMPHSASFPDVDTTSNYHAQDYGSALSLQDHESPRSYSSTLTDLGRSASRERRGTPEKEKLPAKAVYDFKAQTSKELSFKKGDTVYILRKIDQNWYEGEHHGRVGIFPISYVEKLTPPEKAQPARPPPPVQPGEIGEAIAKYNFNADTNVELSLRKGDRIILLKRVDQNWYEGKIPGTNRQGIFPVSYVEVVKRNAKGAEDYPDPPLPHSYSSDRIYTLSSNKPQRPGFSHENIQGGGEPFQALYNYTPRNEDELELRESDVVDVMEKCDDGWFVGTSRRTKFFGTFPGNYVKRL
B3: Interferon gamma induced GTPase (protein, UniProt Q9DCE9 1-423)
chain: MDLVTKLPQNIWKTFTLFINMANYLKRLISPWSKSMTAGESLYSSQNSSSPEVIEDIGKAVTEGNLQKVIGIVKDEIQSKSRYRVKIAVTGDSGNGMSSFINALRFIGHEEEDSAPTGVVRTTKKPACYSSDSHFPYVELWDLPGLGATAQSVESYLEEMQISTFDLIIIVASEQFSSNHVKLAITMQRMRKRFYVVWTKLDRDLSTSTFPEPQLLQSIQRNIRENLQQAQVRDPPLFLISCFSPSFHDFPELRNTLQKDIFSIRYRDPLEIISQVCDKCISNKAFSLKEDQMLMKDLEAAVSSEDDTANLERGLQTYQKLFGVDDGSLQQVARSTGRLEMGSRALQFQDLIKMDRRLELMMCFAVNKFLRLLESSWWYGLWNVVTRYFRHQRHKLVIEIVAENTKTSLRKALKDSVLPPEIH
B4: Protein FAM210A (protein, UniProt Q8BGY7 1-273)
chain: MQWNVPRTMSRLALRTFVEAQKARLFDHHWRIKGPLLVHRGEYRVAWTPHLRKQWLHLSAVQCLAKQRNLLDAQPPQLGTLRQERWEQDILSKRVLSSSSTSQETPSEKKEETDPLQDKSISLYQRFKKTFRQYGKVLIPVHLITSGIWFGTFYYATIKGVNVIPFLEVIGLPDSIVDILKNSQSGNALTAYAMFKIATPARYTVTLGGTSFTVKYLRSHGYMSTPPPVKEYLQGRMEETKELITEKMEETKDRLTEKLQETKGKVSFKKKVE
B5: Four and a half LIM domains protein 2 (protein, UniProt O70433 1-279)
chain: MTERFDCHHCNESLYGKKYILKEENPHCVACFEELYANTCEECGTPIGCDCKDLSYKDRHWHEGCFHCSRCGSSLVDKPFAAKEEQLLCTDCYSNEYSSKCQECKKTIMPGTRKMEYKGSSWHETCFTCQRCQQPIGTKSFIPKENQNFCVPCYEKQYALQCVQCKKPITTGGVTYREQPWHKECFVCTACKKQLSGQRFTARDEFPYCLTCFCDLYAKKCAGCTNPISGLGGTKYISFEERQWHNDCFNCKKCSLSLVGRGFLTERDDILCPDCGKDI
B6: B cell CLL/lymphoma 9 protein (protein, UniProt Q9D219 1-1425)
chain: MHPSNPKVRSSPSGNTQSSPKSKQEVMVRPPTVMSPSGNPQLDSKFSNQGKPGGSASQSQPSPCDSKSGGHTPKALPGPGGSMGLKNGAGNGAKGKGKRERSISADSFDQRDPGTPNDDSDIKECNSADHIKSQESQHTPHSMTPSTATAPRSSTPSHGQTPAPEPISAQKTPAKVVYVFSTEMANKAAEAVLKGQVETIVSFHIQNISNSKSERSTAPLNTQIPTLRNDPKPLPQQPPAPANQDQNSSQNARLQPTPPIQAPAPKPTAAPRPLDRESPGVENKLIPPVGSPGSSTPLPPDGTGPNSTPNNRAVTPVSQGSNSSSADPKAPPPPPVSGGEPPTLGENPDGLSQEQLEHRERSLQTLRDIQRMLFPDEKEFTAGQTGGPQQNTGVLDGPQKKPDGPIQAMMSQSQSLGKGPGPRTDVGAPFGPQGHRDVPFSPDEMVPPNMSSQSGPIGPDHLDHMTPEQIAWLKLQQEFYEEKRRKQEQVVVQQCSLQDMMVHQHGPRGVVRGPPPPYQMAPGEGWAPGAEPFPDGINISHSLPPRGMAPHPNMPGSQMRLPGFAGMINSEMEGPNVPNPASRPGLSGVSWPDDVPKIPDGRNFPPGQGVFSGPGRGERFPNPQGLSEEMFQQQLAEKQLALPPGMSMEGIRPGMEMNRMIPGSQRHMEPGSNPIFPRIPVEGPLSPSRGDFPKGMPPQIGPGRELEFGMVPGGMKGEVNLNVNMGSSSQMIPQKMREAGAGPEEMMKLRPGSSEMLPAQQKMVPLPFGEHPQQEYGVGPRPFLPMSQGPGSNSGLRNLREPIGPDQRTNSRLSHMPPLPLNPSSNPTSLSTAPPVQRGLGRKPLDISVAGSQVHSPGINPLKSPTMHQVQSPMLGSPSGNLKSPQTPSQLAGMLAGPAAAASIKSPPVLGSAAASPVHLKSPSLPAPSPGWTSSPKPPLQSPGIPPNHKAPLTMASPAMLGSVESGGPPPPTASQPASVNIPGSLPSSTPYPMPPEPTLSQNPLSIMMSRMSKFAMPSSTPLYHDAIKTVASSDDDSPPARSPNLPSMNSMPGMGINTQNPRISGPNPVVPMPTLSPMGMTQPLSHSNQMPSPNAMGPSIPPHGVPMGPGLMSHNPIMGHGSQEPPMVPQGRMGFPQGFPPVQSPPQQVPFPHNGPTGGQGNFPGGIGFPGEGPLGRPSNLPQSSADPALCKPGGPGAPDSFTVLGNSMPSVFTDPDLQEVIRPGATGIPEFDLSRIIPSEKPSQTLQYFPRGEVPGRKQPQGPGPGFSHMQGMMSDQAPRMGLALPGMGGPGPVGTPDIPLGTSPSMPGHNPMRPPAFLQQGMMGPHHRMMSPAQSTVPGPATLMTNPAAAVGMIPGKDRGPAGLYTHPGPVGSPGMMMSMQGMMGPQQNIMIPPQMRPRGMAADVGMGGFSQGPGNPGNMMF
B7: Myristoylated alanine-rich C-kinase substrate (protein, UniProt P26645 1-309)
chain: MGAQFSKTAAKGEATAERPGEAAVASSPSKANGQENGHVKVNGDASPAAAEPGAKEELQANGSAPAADKEEPASGSAATPAAAEKDEAAAATEPGAGAADKEAAEAEPAEPSSPAAEAEGASASSTSSPKAEDGAAPSPSSETPKKKKKRFSFKKSFKLSGFSFKKSKKESGEGAEAEGATAEGAKDEAAAAAGGEGAAAPGEQAGGAGAEGAAGGEPREAEAAEPEQPEQPEQPAAEEPQAEEQSEAAGEKAEEPAPGATAGDASSAAGPEQEAPAATDEAAASAAPAASPEPQPECSPEAPPAPTAE
B8: Oxysterol-binding protein 1 (protein, UniProt Q3B7Z2 1-805)
chain: MAATELRGVVGPGPAAIAAPGGGGAGPPAVGGGGGRGDAGPGPGVAAATAATAGGPGPGAGGVAAGGPGSAPPAAGSGGSGAGGSGSAREGWLFKWTNYIKGYQRRWFVLSNGLLSYYRSKAEMRHTCRGTINLATANITVEDSCNFIISNGGAQTYHLKASSEVERQRWVTALELAKAKAVKMLAESDDSGDEESVSQTDKTELQSTLRTLSSKVEDLSTCNDLIAKHGTALQRSLSELESLKLPAESNEKIKQVNERATLFRITSNAMINACRDFLMLAQTHSKKWQKSLQYERDQRIRLEETLEQLAKQHNHLERAFRGATVLPANPPGSAGSGKDQCCSGKGDMSDEDDENEFFDAPEIITMPENLGHKRTGSNISGASSDVSLDEQYKHQLEETKKEKRTRIPYKPNYSLNLWSIMKNCIGKELSKIPMPVNFNEPLSMLQRLTEDLEYHELLDRAAKCENSLEQLCYVAAFTVSSYSTTVFRTSKPFNPLLGETFELDRLEENGYRSICEQVSHHPPAAAHHAESKNGWTLRQEIKITSKFRGKYLSIMPLGTIHCIFHSTGHHYTWKKVTTTVHNIIVGKLWIDQSGEIDIVNHKTGDKCNLKFVPYSYFSRDVARKVTGEVTDPSGKVHFALLGTWDEKMDCFKVQAASGENGGDARQRGHEAEDSRVMLWKRNPLPKNAENMYYFSELALTLNAWEGGTAPTDSRLRPDQRLMENGRWDEANAEKQRLEEKQRLSRKKREAEAAKATEDGTPHDPYKALWFERKKDPVTRELTHIYSGEYWECKEKQDWGSCPDIF

Biological target: native lamin A/C (mouse (endogenous in heart, skeletal muscle and brain)) (UniProt P48678)
Assay: affinity purification with mass spectrometry; native lamin A/C immunoprecipitated with mAb 4C11 and Protein G Sepharose from sonicated heart lysates of old IL10-KO and control C57Bl/6 female mice (five each); 50 mM Tris pH 7.4, 300 mM NaCl, 0.3% Triton X-100, 4°C; TMT 10-plex

**Q.** Which binding does the source give for B1 here?
**A.** The binding was “binds”.

**Q.** With B2 as the binder, how does the binding read?
**A.** Its binding is “binds”.

**Q.** How did the binding turn out when B3 was run?
**A.** The binding was “binds”.

**Q.** B4 was tested. Which binding did it give?
**A.** Its binding is “binds”.

**Q.** B5 was tested. Which binding did it give?
**A.** The binding was “binds”.

**Q.** For B6, which binding is on record?
**A.** Its binding is “binds”.

Biological target: native lamin A/C (mouse (endogenous in heart, skeletal muscle and brain)) (UniProt P48678)
Assay: affinity purification with mass spectrometry; native lamin A/C immunoprecipitated with mAb 4C11 and Protein G Sepharose from sonicated skeletal muscle lysates of old IL10-KO and control C57Bl/6 female mice (five each); 50 mM Tris pH 7.4, 300 mM NaCl, 0.3% Triton X-100, 4°C; TMT 10-plex

**Q.** Which binding does the source give for B7 here?
**A.** The binding was “binds”.

**Q.** With B8 as the binder, how does the binding read?
**A.** The binding was “binds”.
